Experimental data published in PubChem BioAssay AID256 (DTP/NCI, 2004).
The list shows only some results of the screen, not a fair sample: it gathers tests that were run many times, whatever their T/C, doses with no T/C, and many T/C values between a quarter and a half above the control. Further doses and runs are listed elsewhere. T/C is the treated group as % of the vehicle group. Some doses have a count of surviving animals in place of a T/C: the source holds a T/C of zero for them, seemingly a mark for toxic or unscored doses. Some survivor counts are full or nearly so, which does not show that the dose was tolerated: survival well below the control is almost never listed, so the zero probably covers shortened survival too. Counts of survivors are from the toxicity check (mostly the fifth day) where no day follows; animals may have died later. Schedules are NCI's codes, read here as Q, the interval in days (D) or hours (H), X, the number of doses. For survival time, the PubChem record calls one and a half times the control and up active, and a quarter to a half above the control has no call in these data; cut-offs in other NCI protocols can differ. Some entries hold several experiments; their values stand side by side, smallest first. Some T/C values are followed by the survivors on the day toxicity was checked, most often the fifth; where none is given, no animal had died by that day.

Test system: CD2F1 mice, L1210 leukemia ip, survival T/C
Assay: NCI In Vivo Anticancer Drug Screen. Data for tumor model L1210 Leukemia (intraperitoneal) in CD2F1 (CDF1) mice
Settings: higher T/C = longer survival
Procedure, shortened: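 Each value reflects a quotient of treated over vehicle control outcomes in mice with a transplanted tumor.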

[1] = T/C endpoint: mean survival time, dose: 12.5 mg/kg/injection, schedule: Q01DX009 (ip), vehicle: saline with Tween-80
[2] = T/C endpoint: mean survival time, dose: 50.0 mg/kg/injection, schedule: Q01DX009 (ip), vehicle: saline with Tween-80
[3] = T/C endpoint: mean survival time, dose: 200.0 mg/kg/injection, schedule: Q04DX003 (ip), vehicle: saline with Tween-80
[4] = T/C endpoint: mean survival time, dose: 400.0 mg/kg/injection, schedule: Q04DX003 (ip), vehicle: saline with Tween-80
[5] = T/C endpoint: mean survival time, dose: 25.0 mg/kg/injection, schedule: Q01DX009 (ip), vehicle: saline
[6] = T/C endpoint: mean survival time, dose: 800.0 mg/kg/injection, schedule: Q01DX009 (ip), vehicle: saline

**Q.** `Oc1ccc(C=NCCN=Cc2ccc(O)cc2O)c(O)c1` was tested. Which T/C (T/C endpoint: mean survival time, dose: 6.25 mg/kg/injection, schedule: Q01DX009 (ip), vehicle: saline with Tween-80) did it give?
**A.** Its T/C is 128 % of control.

**Q.** What about the T/C [1] of the same compound?
**A.** Its T/C is 134 % of control.

**Q.** What about the survivor count [2] of the same compound?
**A.** Its survivor count is 6 of 6.

**Q.** And the survivor count [3]?
**A.** Its survivor count is 6 of 6.

**Q.** What does the source list for `c1ccc(CCc2ccccn2)nc1`?
**A.** survivor count [3]: 3 of 6; survivor count [4]: 0 of 6

**Q.** For `Nc1ccc(-c2c(N)ncc3ccccc23)cc1`, which survivor count (T/C endpoint: mean survival time, dose: 100.0 mg/kg/injection, schedule: Q04DX003 (ip), vehicle: DMSO) is on record?
**A.** The survivor count was 6 of 6.

**Q.** What about the survivor count (T/C endpoint: mean survival time, dose: 200.0 mg/kg/injection, schedule: Q04DX003 (ip), vehicle: DMSO) of the same compound?
**A.** Its survivor count is 0 of 6.

**Q.** What about the survivor count (T/C endpoint: mean survival time, dose: 400.0 mg/kg/injection, schedule: Q04DX003 (ip), vehicle: DMSO) of the same compound?
**A.** Its survivor count is 0 of 6.

**Q.** For `CCOc1ccc(NC(=S)N(C)C)cc1`, which survivor count [4] is on record?
**A.** The survivor count was 3 of 6.

**Q.** How did the T/C (T/C endpoint: mean survival time, dose: 400.0 mg/kg/injection, schedule: Q04DX002 (ip), vehicle: saline with Tween-80) turn out when `CC(C)C(C(N)=O)C(N)=O` was run?
**A.** Its T/C is 128 % of control.

**Q.** With `O=c1cnn(C2OC(CO)C(O)C2O)c(=O)[nH]1` (centres undefined) as the compound, how does the T/C (T/C endpoint: mean survival time, dose: 12.5 mg/kg/injection, schedule: Q01DX009 (ip), vehicle: saline) read?
**A.** Its T/C is 135 % of control.

**Q.** And the T/C [5]?
**A.** Its T/C is 133 % of control.

**Q.** What about the T/C (T/C endpoint: mean survival time, dose: 25.0 mg/kg/injection, schedule: Q03HX024 (ip), vehicle: saline) of the same compound?
**A.** Its T/C is 132 % of control [5 of 6 alive].

**Q.** What about the T/C (T/C endpoint: mean survival time, dose: 50.0 mg/kg/injection, schedule: Q01DX009 (ip), vehicle: saline) of the same compound?
**A.** Its T/C is 131 % of control.

**Q.** What about the survivor count (T/C endpoint: mean survival time, dose: 100.0 mg/kg/injection, schedule: Q03HX024 (ip), vehicle: saline) of the same compound?
**A.** Its survivor count is 2 of 6.

**Q.** And the T/C (T/C endpoint: mean survival time, dose: 143.0 mg/kg/injection, schedule: Q03HX024 (ip), vehicle: other)?
**A.** The T/C was 148 % of control.

**Q.** And the T/C (T/C endpoint: mean survival time, dose: 200.0 mg/kg/injection, schedule: Q01DX009 (ip), vehicle: distilled water + Tween-80)?
**A.** The T/C was 130 % of control.

**Q.** And the T/C (T/C endpoint: mean survival time, dose: 200.0 mg/kg/injection, schedule: Q01DX009 (ip), vehicle: saline)?
**A.** The T/C was 127 and 129 % of control.

**Q.** And the survivor count (T/C endpoint: mean survival time, dose: 200.0 mg/kg/injection, schedule: Q03HX024 (ip), vehicle: saline)?
**A.** The survivor count was 2 of 6.

**Q.** What about the T/C (T/C endpoint: mean survival time, dose: 300.0 mg/kg/injection, schedule: Q03HX016 (ip), vehicle: other) of the same compound?
**A.** Its T/C is 129 % of control.

**Q.** What about the T/C (T/C endpoint: mean survival time, dose: 400.0 mg/kg/injection, schedule: Q01DX005 (ip), vehicle: water, evaluated on day 20) of the same compound?
**A.** Its T/C is 130 % of control.

**Q.** What about the T/C (T/C endpoint: mean survival time, dose: 400.0 mg/kg/injection, schedule: Q01DX005 (ip), vehicle: water, evaluated on day 30) of the same compound?
**A.** Its T/C is 127 % of control.

**Q.** What about the T/C (T/C endpoint: mean survival time, dose: 400.0 mg/kg/injection, schedule: Q01DX009 (ip), vehicle: distilled water + Tween-80) of the same compound?
**A.** Its T/C is 140 % of control.

**Q.** What about the T/C (T/C endpoint: mean survival time, dose: 400.0 mg/kg/injection, schedule: Q01DX009 (ip), vehicle: saline) of the same compound?
**A.** Its T/C is 130 and 136 % of control.

**Q.** And the T/C (T/C endpoint: mean survival time, dose: 800.0 mg/kg/injection, schedule: Q01DX005 (ip), vehicle: water, evaluated on day 20)?
**A.** Its T/C is 143 % of control.

**Q.** And the T/C (T/C endpoint: mean survival time, dose: 800.0 mg/kg/injection, schedule: Q01DX005 (ip), vehicle: water, evaluated on day 30)?
**A.** Its T/C is 131 % of control.

**Q.** And the T/C [6]?
**A.** Its T/C is 127 and 133 % of control.

**Q.** And the survivor count [6]?
**A.** Its survivor count is 6 of 6.

**Q.** What about the T/C (T/C endpoint: mean survival time, dose: 1600.0 mg/kg/injection, schedule: Q01DX009 (ip), vehicle: saline) of the same compound?
**A.** Its T/C is 127 % of control [5 of 6 alive].

**Q.** Which survivor count (T/C endpoint: mean survival time, dose: 110.0 mg/kg/injection, schedule: Q01DX001 (ip), vehicle: saline) does the source give for `CCCC[As](=O)(O)C(C)C` here?
**A.** Its survivor count is 1 of 6.

**Q.** Which survivor count [3] does the source give for `O=C1OC(c2ccccc2)(c2ccccc2)c2cccc3cccc1c23` here?
**A.** Its survivor count is 6 of 6.

**Q.** For `Cc1ccc(NC(=O)C2CCC(C)(C(=O)O)C2(C)C)cc1` (centres undefined), which survivor count [4] is on record?
**A.** Its survivor count is 3 of 6.

**Q.** How did the survivor count [1] turn out when `COc1ccc([I+]c2ccc(OC)cc2)cc1` was run?
**A.** The survivor count was 4 of 6.

**Q.** And the survivor count (T/C endpoint: mean survival time, dose: 25.0 mg/kg/injection, schedule: Q01DX009 (ip), vehicle: saline with Tween-80)?
**A.** The survivor count was 5 of 6.

**Q.** And the survivor count [2]?
**A.** Its survivor count is 1 of 6.

**Q.** For `CCC(=O)OCC1OC(n2ccc(O)cc2=O)C(O)C1O` (centres undefined), which T/C (T/C endpoint: median survival time, dose: 225.0 mg/kg/injection, schedule: Q01DX009 (ip), vehicle: saline + alcohol) is on record?
**A.** The T/C was 142 % of control.

**Q.** For `CC(=O)OC1OC(=O)C(C)(C(C)=O)C1C` (centres undefined), which survivor count (T/C endpoint: median survival time, dose: 40.0 mg/kg/injection, schedule: Q01DX009 (ip), vehicle: distilled water + alcohol) is on record?
**A.** The survivor count was 3 of 6.

**Q.** For `[CH3][Sn]([CH3])([Br])[CH2]CCCBr`, which survivor count [5] is on record?
**A.** The survivor count was 0 of 3.
